In this assay the target is EGFP-tagged CCDC6-RET fusion protein. As to the kind of experiment: co-IP; HEK293T cells expressing EGFP-tagged CCDC6-RET (or EV) with mCherry-tagged GRB2, SHC1 or EV; anti-GFP IP, western blotting; cells treated with LOXO292 (1 µM), BLU667 (1 µM) or the solvent DMSO. A general note: In western blotting, separated proteins are transferred to a membrane and probed.

Results are given in words; binding and its absence hold for the method and conditions named. In cells and extracts the contact can be indirect. Binding calls can cover weak binding; strength is not graded here. Sequences can lack the tags named with a protein.

B1: mCherry-tagged SHC1 (protein, UniProt P29353 1-583)
chain: MDLLPPKPKYNPLRNESLSSLEEGASGSTPPEELPSPSASSLGPILPPLPGDDSPTTLCSFFPRMSNLRLANPAGGRPGSKGEPGRAADDGEGIVGAAMPDSGPLPLLQDMNKLSGGGGRRTRVEGGQLGGEEWTRHGSFVNKPTRGWLHPNDKVMGPGVSYLVRYMGCVEVLQSMRALDFNTRTQVTREAISLVCEAVPGAKGATRRRKPCSRPLSSILGRSNLKFAGMPITLTVSTSSLNLMAADCKQIIANHHMQSISFASGGDPDTAEYVAYVAKDPVNQRACHILECPEGLAQDVISTIGQAFELRFKQYLRNPPKLVTPHDRMAGFDGSAWDEEEEEPPDHQYYNDFPGKEPPLGGVVDMRLREGAAPGAARPTAPNAQTPSHLGATLPVGQPVGGDPEVRKQMPPPPPCPGRELFDDPSYVNVQNLDKARQAVGGAGPPNPAINGSAPRDLFDMKPFEDALRVPPPPQSVSMAEQLRGEPWFHGKLSRREAEALLQLNGDFLVRESTTTPGQYVLTGLQSGQPKHLLLVDPEGVVRTKDHRFESVSHLISYHMDNHLPIISAGSELCLQQPVERKL
With B1, the binding result is on record as “binds”.

Values taken from paper PMC11161787.
